Measured values: paper PMC6476934, “A Flavor Lactone Mimicking AHL Quorum-Sensing Signals Exploits the Broad Affinity of the QsdR Regulator to Stimulate Transcription of the Rhodococcal qsd Operon Involved in Quorum-Quenching and Biocontrol Activities” (Frontiers in Microbiology, 2019)

Target: T1, QsdR (His-tagged) (UniProt A0A0C2W9F0)
T1 sequence (looked up): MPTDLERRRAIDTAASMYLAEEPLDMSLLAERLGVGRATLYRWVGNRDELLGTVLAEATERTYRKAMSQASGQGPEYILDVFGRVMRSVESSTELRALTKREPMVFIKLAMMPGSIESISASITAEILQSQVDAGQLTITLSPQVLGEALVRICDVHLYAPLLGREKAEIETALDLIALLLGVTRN
Assay: EMSA
Details: LightShift Chemiluminescent EMSA Kit buffer (composition, salt, pH not stated), QsdR in Qiagen elution buffer with 50% glycerol, 20 min at room temperature, recombinant protein, residues 1-186, protein details: His (pET19, Ni-NTA), label: biotin (biotinylated primers), probe letters rebuilt from the primers and the genome

Sequence: GGTAGGCATCGGGACATTCTCTCCGGTTGTCCGGTACTGCACAATTTCGGCGGTCGAACAGAGGTGGGCTTCGGGTGGCTCGAGCCTATTGACGAACCAAGCGACGTGAGACACACTAGCTCATTGTCTCATGTTAGTGATGGCGATCACAGTCAGGGGTTCGATCGATGAG (double strand) [qsdR-qsdA intergenic DNA fragment]
- binding result (gamma-caprolactone (GCL), ligand/QsdR ratio 0.1-100, free DNA rises with GCL): binds more weakly
- binding result (homoserine lactone (HSL), ligand/QsdR ratio 0.1-100): binds more weakly
- binding result (no ligand, 3 ug QsdR, 0.4 ng DNA): binds

The exact form of at least one protein or probe is not confirmed. The comparison behind a weaker result is the experiment's own reference, which may not be listed here. Tags and fusion partners may be left off the protein sequences shown. At least one verdict was read from the data and is not stated in words by the source.
